According to PubChem BioAssay AID624297 (National Center for Advancing Translational Sciences (NCATS), 2012):
Screen size: about 340,000 compounds; about 6,200 (1.8%) were called active. The inconclusive results got no clear call from the source; some entries with a clear call stand among them for comparison. The call rests on the fitted dose curve; in most records, active means well fitted activation curve with a large enough effect; inconclusive means small, poorly fitted or top-dose-only effect; inactive means no such curve, though single readings can be large or run the other way. Where the call is inconclusive, the potency comes from a doubtful curve fit.

Experiment: A quantitative high throughput screen for small molecules that induce DNA re-replication in SW480 colon adenocarcinoma cells. Further: nearly all actives have a fitted effect of over 55% in size.
Details: Hoechst DNA content imaging, 48 h; series mostly up to 46.1 µM
Procedure, shortened: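 Hoechst fluorescence of nuclei (405 nm excitation, 500-530 nm emission) measured by plate-scanning imager after 48 hr compound exposure at 37 C; re-replication scored as increased number of nuclei with elevated intensity.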
Potency means the concentration at half of the fitted maximal effect.

SMILES	Potency
CC(NC(=O)Cn1ncc(Cl)c(Cl)c1=O)C12CC3CC(CC(C3)C1)C2 (stereo not given)	active: 5.17 µM
CCN(c1ccc(NC(=O)CSc2nnc3nc(C)cc(C)n23)cc1)C(C)C	inconclusive: 25.9 µM [activator, partial curve, poor fit]
CCOc1ccc2nc(N3CCCC(C(=O)NCCCN4C(C)CCCC4C)C3)sc2c1 (stereo not given)	inconclusive: 29.1 µM [activator, single point]
O=C(CN1C2=NCCN2c2ccccc21)C12CC3CC(CC(C3)C1)C2	inconclusive: 32.6 µM [activator, partial curve, poor fit]
CCc1nc2ccccc2c(C(=O)OCC(=O)Nc2cccc(S(=O)(=O)N3CCOCC3)c2)c1C	inconclusive: 20.6 µM [activator, partial curve, poor fit]
COc1ccc2c(Cl)c(C(=O)NN)sc2c1	inconclusive: 29.1 µM [activator, single point]
C(=N\N1CCN(C2c3ccccc3-c3ccccc32)CC1)/c1ccccn1	inactive
COc1ccc(C(=O)COC(=O)c2ccc3c(c2)NC(=O)CS3)c(OC)c1	inactive
Cc1cc(C)cc(OC(=O)CS(=O)c2ccc(C(F)(F)F)cc2[N+](=O)[O-])c1 (stereo not given)	inconclusive: 20.6 µM [activator, single point]
CNCc1ccccc1Sc1cccc2ccccc12	inconclusive: 20.6 µM [activator, partial curve, poor fit]
NS(=O)(=O)c1cccc(NC(=O)c2ccc(NS(=O)(=O)c3cccc([N+](=O)[O-])c3)cc2)c1	inactive
CNC(=S)N(Cc1ccc(OC)cc1)Cc1cc2cccc(C)c2[nH]c1=O	inconclusive: 25.9 µM [activator, single point]
O=C(COc1ccc(F)cc1)Nc1cc(S(=O)(=O)N2CCCCC2)ccc1N1CCCCC1	inconclusive: 29.1 µM [activator, single point]
Cc1cccc(C)c1NC(=O)Cn1nc(-c2ccc(Cl)s2)ccc1=O	inconclusive: 2.91 µM [activator, partial curve, poor fit]
CCC(C(=O)NCc1ccco1)N(C(=O)CNS(=O)(=O)c1ccc(C)cc1)c1ccccc1F (stereo not given)	inactive
Cc1cccc(Cn2cnc3c(nnn3Cc3ccc(F)cc3)c2=O)c1	inactive
OCC1OC(Oc2c[nH]c3ccccc23)C(O)C(O)C1O (stereo not given)	inactive
O=c1[nH]c(=O)c2[nH]c(=O)[nH]c2[nH]1	inactive
O=C(Nc1cccc(F)c1)C1CCN(S(=O)(=O)c2cnc[nH]2)CC1	inconclusive: 29.1 µM [activator, single point]
CCCc1cc(=O)[nH]c(=S)[nH]1	inconclusive: 0.891 µM [activator, partial curve, poor fit]
COc1ccc(/C=N/NC(=O)c2cccnc2)cc1COc1ccc([N+](=O)[O-])c(C)c1	active: 11.6 µM
CCOCCCNc1nc2c(c(=O)[nH]c(=O)n2C)n1CCCc1ccccc1	inactive
O=C/C=C/c1c(-c2ccccc2)cc2oc3ccccc3cc1-2	inconclusive: 29.1 µM [activator, single point]
CC(=O)Nc1ccc(N/C=C/C(=O)c2ccc(Br)cc2)cc1	inconclusive: 29.1 µM [activator, single point]

SMILES	Potency
O=C(c1ccco1)N1CCN(C2c3ccccc3-c3ccccc32)CC1	inconclusive: 32.6 µM [activator, partial curve, poor fit]
O=C(NC1CCCCC1)C(c1ccccc1)N(C(=O)c1cccs1)c1ccc2c(c1)OCO2 (stereo not given)	active: 1.3 µM
O=C(Nc1ccc(F)cc1)c1cc(-c2ccccn2)nc2c(Cl)cccc12	inconclusive: 18.4 µM [activator, partial curve, poor fit]
CC(C)NS(=O)(=O)c1ccc(OCC(=O)NCc2ccc3c(c2)OCO3)c(Cl)c1	inactive
CS(=O)(=O)N1CCC(C(=O)Nc2cccc(C(F)(F)F)c2)CC1	inactive
CCOc1ccccc1NC(=O)c1ccc2[nH]c(C)c(C)c2c1	active: 23.1 µM
C=C1c2ccccc2NC(=S)N1Cc1ccc2c(c1)OCO2	inactive
CN(C)CCCNC(=O)CC1C[C@H](C(=O)N2CCOCC2)[C@@]2(CCC3CCCC3)c3[nH]c4ccccc4c3CCN2C1=O (stereo not given in full)	inactive
N#C/C(=C(/O)c1ccc(Cl)c([N+](=O)[O-])c1)c1nc2ccccc2[nH]1	inactive
Cc1ccc(-c2cc(C(=O)Nc3c(C)n(C)n(-c4ccccc4)c3=O)[nH]n2)c(O)c1C	inconclusive: 32.6 µM [activator, partial curve, poor fit]
Oc1ccccc1NCC(O)Cn1ccc2ccccc21 (stereo not given)	inconclusive: 29.1 µM [activator, single point]
COc1ccc(/C=C/C(=O)c2ccccc2)cc1Cn1nnc2ccccc21	inconclusive: 5.8 µM [activator, partial curve, poor fit]
CC(C)N(C)Cc1nnnn1CC(=O)N(C)Cc1ccc(F)cc1	inactive
COc1ccc(-c2cc(=O)oc3cc4occ(C)c4cc23)cc1	inconclusive: 29.1 µM [activator, single point]
Cc1ccc(CNC(=O)C(=O)NCCC2CCCCN2S(=O)(=O)c2ccc(C)cc2)cc1 (stereo not given)	inconclusive: 4.11 µM [activator, full curve, poor fit]
CCN1C(=O)C2(Nc3ccccc3-c3nc4ccccc4n32)c2cc(OC)ccc21 (stereo not given)	inactive
CC(=O)N1c2ccc(S(=O)(=O)NCCC(=O)NCc3ccc(Cl)cc3)cc2CC1C (stereo not given)	inactive
CCCCC(=O)Nc1ccc(C(=O)N(CC)c2ccccc2C)cc1	inconclusive: 20.6 µM [activator, single point]
COC(=O)c1ccc(N)c(CS(=O)(=O)c2ccc(Cl)cc2)c1	inconclusive: 6.51 µM [activator, partial curve, poor fit]
CC(=O)c1nn(-c2ccccc2)cc1C(=O)c1ccc(Br)cc1	inconclusive: 7.31 µM [activator, partial curve, poor fit]
COC(=O)Cn1ncc2c(C)n(Cc3ccccc3)c(C)c2c1=O	inactive
COc1ccc(CNC(=O)c2c(C)oc3c2C(=O)c2ccccc2C3=O)cc1	active: 20.6 µM
CCN(c1ccc(C)cc1)S(=O)(=O)c1nnc(NC(=O)c2ccco2)s1	inconclusive: 16.4 µM [activator, single point]
O=S(=O)(N(Cc1ccccc1)[C@H](CO)Cc1ccccc1)N(Cc1ccccc1)[C@H](CO)Cc1ccccc1	inactive

SMILES	Potency
CC(C)(Oc1ccc(Cl)cc1)C(=O)O/N=C(\N)c1ccncc1	inconclusive: 0.224 µM [activator, full curve, poor fit]
COc1ccc(/C=N\NC(=O)c2ccc(F)cc2)cc1COc1cc(F)ccc1[N+](=O)[O-]	inconclusive: 18.4 µM [activator, single point]
N#C/C(=C/c1ccc(Br)o1)C(N)=O	inconclusive: 18.4 µM [activator, single point]
O=C(NCCN1CCN(c2ccccc2)CC1)Nc1ccccc1Br	inconclusive: 23.1 µM [activator, partial curve, poor fit]
O=C(Oc1ccccc1/C=C\C(=O)c1cc2ccccc2o1)c1cccc(F)c1	inconclusive: 32.6 µM [activator, partial curve, poor fit]
Cc1sc2ccccc2c1CNC[C@H]1O[C@@H](n2cnc(C(N)=O)n2)[C@H](O)[C@@H]1O	inconclusive: 9.2 µM [activator, single point]
CCCc1nnc(NC(=O)CCC(=O)Nc2ccc(Cl)cc2)s1	inactive
COc1ccc(OC)c(C2C(C#N)=C(N)Oc3cc(N)ccc32)c1 (stereo not given)	inconclusive: 29.1 µM [activator, single point]
CCOc1ccc(C(C)C)cc1S(=O)(=O)N1CCN(C(=O)c2ccco2)CC1	inactive
CC(=O)c1ccc(NC(=O)C2CCCN(c3ncnc4c3nc3n4CCCCC3)C2)cc1 (stereo not given)	inactive
C/C(=N\Nc1cc(C)nc(-c2ccccc2O)n1)c1ccccc1	inconclusive: 29.1 µM [activator, single point]
Cc1cc(SCc2cccc(C(F)(F)F)c2)nc(=O)[nH]1	inactive
O=C(O)c1ccccc1C(=O)Nc1cc(-c2ccccc2)[nH]n1	inactive
COc1cc(N/C(N)=N/c2nc(C)cc(C)n2)cc(OC)c1	inconclusive: 29.1 µM [activator, single point]
CCN(CC)CCCNc1nc2cc(OC)c(OC)cc2c2nc(-c3cccnc3)nn12	inconclusive: 20.6 µM [activator, single point]
CCCN1C(=O)/C(=C/c2c(NCCCOC(C)C)nc3c(C)cccn3c2=O)SC1=S	inactive
CC1=C(CC(=O)O)c2cc(F)ccc2/C1=C\c1ccc(S(C)=O)cc1 (stereo not given)	inconclusive: 0.231 µM [activator, single point]
COC(=O)c1c(NC(=O)CSc2ccccc2N)sc(C)c1C	inactive
CCC/C(C)=N\Nc1nc2c(c(=O)n(C)c(=O)n2C)n1C	inconclusive: 16.4 µM [activator, partial curve, poor fit]
CSC(=NC#N)N1CCN(c2ccc([N+](=O)[O-])cc2)CC1	inactive
O=S(=O)(c1ccccc1)c1nc(Nc2cccc(O)c2)sc1Cl	inconclusive: 16.4 µM [activator, partial curve, poor fit]
c1coc(-c2cc(C3CCNCC3)[nH]n2)c1	inconclusive: 29.1 µM [activator, single point]

For reference, part of the list above.
SMILES	Potency
CCOc1ccc(C(C)C)cc1S(=O)(=O)N1CCN(C(=O)c2ccco2)CC1	inactive
CC(=O)c1ccc(NC(=O)C2CCCN(c3ncnc4c3nc3n4CCCCC3)C2)cc1 (stereo not given)	inactive
C/C(=N\Nc1cc(C)nc(-c2ccccc2O)n1)c1ccccc1	inconclusive: 29.1 µM [activator, single point]
Cc1cc(SCc2cccc(C(F)(F)F)c2)nc(=O)[nH]1	inactive
